PubChem BioAssay AID504784 – Drosophila RNAi Screening Center | 2011

Purpose: 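Search for regulators of lipid droplet storage in oleate-fed fly cells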 (primary screen)
Cells: Drosophila Kc167 embryonic cells
Reagent: long dsRNA against Drosophila genes, about 250 ng dsRNA per well
Duration: 4 days
Challenge: cells fed 400 µM oleic acid bound to BSA
Measured: 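Microscope images give a droplet-to-nucleus area ratio, taken as log and converted to a screen-wide B-score; higher values mean greater lipid storage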
Scale: droplet/nuclear area B-score: higher = more stored lipid (overstorage)
In all, the deposit lists about 17,000 reagents; shown is an unselected part of those that have a named target and a result. 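Each column is one replicate's B-score; the combined score over replicates was not deposited, so single values may mislead.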 The numbers tell different reagents against one gene apart. A plus sign joins genes that one reagent is predicted to hit. No sequences are given here.

| target | reagent | droplet/nuclear area B-score, replicate 1 | droplet/nuclear area B-score, replicate 2 | droplet/nuclear area B-score, replicate 3 |
| --- | --- | --- | --- | --- |
| hop | 1 | 0.285 | 0.592 | 0.00227 |
| hop | 2 | -1.14 | -0.547 | – |
| Cox17 | 1 | 3.04 | 2.1 | – |
| CG14817 | 1 | -0.0378 | 1.9 | – |
| Tb | 1 | 1.56 | 0.474 | – |
| Nrx-IV | 1 | -0.621 | 0.356 | – |
| CG1409 | 1 | 0.497 | – | – |
| CG17237 | 1 | -0.422 | 0.966 | – |
| CG2924 | 1 | -1.8 | 0.685 | – |
| CG11865 | 1 | -0.298 | 0.0122 | – |
| CG10137 | 1 | -1.96 | -2.35 | – |
| CG10137 | 2 | 0.00239 | 0.502 | – |
| CG12948 | 1 | 0.277 | 0.915 | – |
| Stat92E | 1 | -0.387 | -0.412 | – |
| RpL3 + CG6693 | 1 | -0.000816 | -0.0197 | – |
| CG8405 | 1 | -3.3 | -1.87 | – |
| CG8405 | 2 | -0.635 | -0.842 | – |
| CG3808 | 1 | 1.03 | 1.01 | – |
| kek4 | 1 | -0.202 | 0.103 | – |
| Sry-alpha | 1 | 3.39 | 0.64 | -0.0838 |
| f | 1 | -0.673 | -1.82 | – |
| f | 2 | 0.0675 | 2.57 | – |
| f | 3 | -1.1 | 0.514 | – |
| CG7164 | 1 | -1.36 | 0.015 | – |
| 5-HT2A | 1 | 0.632 | 1.76 | -0.373 |
| CG9449 | 1 | -0.316 | -1.3 | – |
| Or46a | 1 | -1.14 | -0.154 | – |
| Or46a | 2 | -2.19 | -0.385 | – |
| Or46a | 3 | -0.817 | 0.43 | – |
| CG15111 | 1 | -0.145 | 0.332 | – |
| TTLL3B | 1 | 0.379 | 0.142 | – |
| CREG | 1 | -0.17 | -0.238 | – |
| Ir94c | 1 | 0.423 | -0.0316 | – |
| Rpn7 | 1 | 0.0102 | -0.158 | – |
| prt | 1 | -2.4 | -1.57 | – |
| CG5727 | 1 | -0.107 | 0.336 | – |
| Drsl6 | 1 | -0.44 | -0.841 | – |
| RanGAP | 1 | -0.0793 | 1.76 | – |
| CG43897 | 1 | -0.417 | 0.841 | – |
| CG43897 | 2 | 0.16 | 0.202 | – |
| CG43897 | 3 | 1.49 | 1.31 | – |
| CheB42c | 1 | 0.702 | 1.99 | – |
| stv | 1 | -2.63 | 0.453 | 1.05 |
| stv | 2 | 1.65 | 0.439 | – |
| Fbp2 | 1 | 0.644 | 0.302 | – |
| Fancm | 1 | 0.173 | 2.37 | – |
| HPS1 | 1 | 0.0486 | -2.07 | – |
| CG12609 | 1 | 0.379 | 0.771 | – |
| dsb | 1 | 0.0504 | 0.359 | – |
| dsb | 2 | 0.432 | -0.685 | – |
| CG6431 | 1 | -0.935 | -0.311 | – |
| aqz | 1 | 0.00141 | -2.35 | – |
| dyw | 1 | -0.226 | -0.832 | – |
| SIFa | 1 | -0.68 | -0.456 | – |
| CG15043 | 1 | 0.55 | 0.317 | – |
| CG17636 | 1 | -0.256 | 1.09 | – |
| CG10512 | 1 | 1.41 | -1.35 | – |
| CG33116 | 1 | -0.592 | 1.77 | – |
| Cby | 1 | 0.00145 | 1.18 | – |
| Elo68beta | 1 | -0.0918 | -0.801 | – |
| CG14929 + CG4970 | 1 | 0.728 | -0.445 | – |
| CG14929 + CG4970 | 2 | -2.06 | -0.103 | – |
| Vha16-2 | 1 | 0.327 | -0.534 | – |
| CG17712 | 1 | -1.2 | 0.283 | – |
| Osi13 | 1 | 2.2 | 0.975 | – |
| Dso1 | 1 | 0.513 | 4.36 | – |
| Kal1 | 1 | -0.578 | 2.48 | – |
| Patr-1 | 1 | 2.63 | 1.87 | – |
| PGRP-SD | 1 | – | 1.1 | – |
| CG14346 | 1 | 0.00563 | -0.429 | – |
| CG18273 | 1 | -0.539 | -0.2 | – |
| CG18273 | 2 | -2.69 | 1.36 | 0.934 |
| PVRAP | 1 | -1.6 | -0.622 | – |
| PVRAP | 2 | -2.3 | -1.11 | – |
| CG15140 | 1 | 0.0763 | -0.82 | – |
| CG15147 | 1 | -1.08 | -0.901 | 0.121 |
| CG15147 | 2 | -0.0724 | -0.288 | – |
| CG13203 | 1 | -0.0285 | 1.77 | – |
| MAPk-Ak2 | 1 | 0.279 | 0.228 | – |
| CG11858 | 1 | -1.76 | -0.461 | -1.06 |
| CG11791 | 1 | 4.18 | 0.738 | – |
| CG2938 | 1 | 1.05 | 0.688 | – |
| jagn | 1 | 2.93 | 1.72 | – |

Looked up above.
For “droplet/nuclear area B-score, replicate 1”, CG6431 is entered as -0.935
For “droplet/nuclear area B-score, replicate 1”, CG15147 #2 shows -0.0724
MAPk-Ak2, droplet/nuclear area B-score, replicate 2: 0.228
Under “droplet/nuclear area B-score, replicate 1”, HPS1 reads 0.0486
For “droplet/nuclear area B-score, replicate 1”, Rpn7 has 0.0102
For “droplet/nuclear area B-score, replicate 2”, CG17712 shows 0.283
